Assay results reported in paper PMC6517413.
No constants are given. Whether binding was seen depends on the method and setting. Some results given as binding are weak or reduced against the parent protein; the word gives no strength.

By UniProt entry, the sequences of proteins in these tests, tags left out. Where a name states a change or a piece, a line headed by the entry shows the natural chain unless it says otherwise.
UniProt P49735: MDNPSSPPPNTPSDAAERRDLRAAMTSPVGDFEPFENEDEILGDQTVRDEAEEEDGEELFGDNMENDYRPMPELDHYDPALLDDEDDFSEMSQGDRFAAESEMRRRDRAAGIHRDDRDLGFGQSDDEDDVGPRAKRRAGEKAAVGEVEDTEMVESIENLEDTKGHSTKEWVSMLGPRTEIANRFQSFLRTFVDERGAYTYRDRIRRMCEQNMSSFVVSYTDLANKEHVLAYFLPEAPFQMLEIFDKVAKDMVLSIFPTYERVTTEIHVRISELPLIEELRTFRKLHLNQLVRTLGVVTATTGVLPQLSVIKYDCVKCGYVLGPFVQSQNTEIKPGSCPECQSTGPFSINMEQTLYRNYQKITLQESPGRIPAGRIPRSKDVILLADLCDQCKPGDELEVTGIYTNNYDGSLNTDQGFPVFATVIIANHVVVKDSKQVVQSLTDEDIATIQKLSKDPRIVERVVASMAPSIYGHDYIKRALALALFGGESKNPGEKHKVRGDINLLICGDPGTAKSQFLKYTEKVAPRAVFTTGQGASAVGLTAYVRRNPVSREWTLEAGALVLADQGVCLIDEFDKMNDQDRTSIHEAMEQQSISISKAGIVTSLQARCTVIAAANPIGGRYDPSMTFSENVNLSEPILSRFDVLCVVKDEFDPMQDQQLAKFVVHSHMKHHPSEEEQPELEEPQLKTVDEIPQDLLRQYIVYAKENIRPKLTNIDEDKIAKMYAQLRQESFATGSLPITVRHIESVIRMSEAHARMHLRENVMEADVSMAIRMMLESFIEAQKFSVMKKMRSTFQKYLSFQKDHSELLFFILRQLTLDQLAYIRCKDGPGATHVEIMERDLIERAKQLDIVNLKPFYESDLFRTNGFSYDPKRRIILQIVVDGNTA
UniProt Q9XYU1: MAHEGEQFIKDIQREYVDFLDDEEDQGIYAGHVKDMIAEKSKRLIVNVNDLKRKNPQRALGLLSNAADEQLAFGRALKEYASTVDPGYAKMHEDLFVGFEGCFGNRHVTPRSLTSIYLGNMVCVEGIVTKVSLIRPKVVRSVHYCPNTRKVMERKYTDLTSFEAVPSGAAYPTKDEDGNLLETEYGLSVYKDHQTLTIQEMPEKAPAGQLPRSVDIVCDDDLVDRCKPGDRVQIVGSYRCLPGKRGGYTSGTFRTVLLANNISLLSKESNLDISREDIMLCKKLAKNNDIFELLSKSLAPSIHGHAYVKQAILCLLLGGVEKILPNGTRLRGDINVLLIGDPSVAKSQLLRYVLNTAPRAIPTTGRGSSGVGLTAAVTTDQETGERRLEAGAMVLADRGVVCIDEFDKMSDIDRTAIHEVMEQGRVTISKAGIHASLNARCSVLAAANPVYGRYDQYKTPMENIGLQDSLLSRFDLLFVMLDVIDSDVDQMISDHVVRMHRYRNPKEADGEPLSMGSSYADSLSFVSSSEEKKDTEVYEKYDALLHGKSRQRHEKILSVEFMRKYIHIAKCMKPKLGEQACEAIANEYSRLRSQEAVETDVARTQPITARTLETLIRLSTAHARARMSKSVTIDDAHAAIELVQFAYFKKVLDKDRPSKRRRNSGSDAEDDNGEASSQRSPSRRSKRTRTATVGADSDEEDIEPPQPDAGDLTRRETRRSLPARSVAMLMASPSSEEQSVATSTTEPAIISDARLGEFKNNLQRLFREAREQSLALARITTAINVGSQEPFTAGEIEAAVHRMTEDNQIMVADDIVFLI
UniProt Q26454: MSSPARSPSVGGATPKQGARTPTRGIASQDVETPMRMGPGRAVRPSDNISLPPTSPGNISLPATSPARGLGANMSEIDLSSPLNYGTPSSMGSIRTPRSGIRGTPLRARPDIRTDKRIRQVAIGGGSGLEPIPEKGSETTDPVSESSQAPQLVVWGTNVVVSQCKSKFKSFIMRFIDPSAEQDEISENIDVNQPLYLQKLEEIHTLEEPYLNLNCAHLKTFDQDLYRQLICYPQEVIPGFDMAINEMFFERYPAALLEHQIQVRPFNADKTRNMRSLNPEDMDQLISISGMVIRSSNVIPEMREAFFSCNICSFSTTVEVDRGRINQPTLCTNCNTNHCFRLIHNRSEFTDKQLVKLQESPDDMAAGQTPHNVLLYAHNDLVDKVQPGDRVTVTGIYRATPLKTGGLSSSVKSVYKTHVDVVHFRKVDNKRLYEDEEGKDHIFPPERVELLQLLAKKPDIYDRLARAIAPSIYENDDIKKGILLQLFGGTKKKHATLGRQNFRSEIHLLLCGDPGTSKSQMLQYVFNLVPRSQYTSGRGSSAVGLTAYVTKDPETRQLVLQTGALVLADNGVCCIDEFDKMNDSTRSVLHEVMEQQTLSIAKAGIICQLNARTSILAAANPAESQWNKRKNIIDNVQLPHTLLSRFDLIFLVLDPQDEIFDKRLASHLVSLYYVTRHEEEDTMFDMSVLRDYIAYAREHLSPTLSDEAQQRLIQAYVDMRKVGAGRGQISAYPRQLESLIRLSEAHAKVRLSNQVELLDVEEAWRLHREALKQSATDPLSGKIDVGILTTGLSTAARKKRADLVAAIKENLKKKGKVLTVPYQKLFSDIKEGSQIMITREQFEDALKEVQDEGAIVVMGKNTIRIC
UniProt Q9VGW6: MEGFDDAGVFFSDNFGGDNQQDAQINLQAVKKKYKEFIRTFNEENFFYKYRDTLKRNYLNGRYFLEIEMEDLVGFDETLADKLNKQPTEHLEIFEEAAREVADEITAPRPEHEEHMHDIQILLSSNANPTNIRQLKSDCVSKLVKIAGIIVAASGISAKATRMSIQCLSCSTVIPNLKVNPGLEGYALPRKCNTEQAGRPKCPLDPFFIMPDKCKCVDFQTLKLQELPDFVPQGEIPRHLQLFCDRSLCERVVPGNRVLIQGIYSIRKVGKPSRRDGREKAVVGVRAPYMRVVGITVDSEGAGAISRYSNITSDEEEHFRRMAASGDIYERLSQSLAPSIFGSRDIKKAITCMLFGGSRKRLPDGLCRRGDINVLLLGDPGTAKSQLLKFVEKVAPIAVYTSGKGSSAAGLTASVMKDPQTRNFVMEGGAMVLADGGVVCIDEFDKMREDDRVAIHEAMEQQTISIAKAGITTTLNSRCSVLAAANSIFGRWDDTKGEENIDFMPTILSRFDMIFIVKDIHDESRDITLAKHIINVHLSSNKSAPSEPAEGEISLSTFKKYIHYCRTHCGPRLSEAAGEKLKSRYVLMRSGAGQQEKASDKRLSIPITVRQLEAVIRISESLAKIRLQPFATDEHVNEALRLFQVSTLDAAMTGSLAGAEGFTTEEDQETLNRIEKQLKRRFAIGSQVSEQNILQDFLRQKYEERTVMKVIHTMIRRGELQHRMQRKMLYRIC
UniProt Q9V461: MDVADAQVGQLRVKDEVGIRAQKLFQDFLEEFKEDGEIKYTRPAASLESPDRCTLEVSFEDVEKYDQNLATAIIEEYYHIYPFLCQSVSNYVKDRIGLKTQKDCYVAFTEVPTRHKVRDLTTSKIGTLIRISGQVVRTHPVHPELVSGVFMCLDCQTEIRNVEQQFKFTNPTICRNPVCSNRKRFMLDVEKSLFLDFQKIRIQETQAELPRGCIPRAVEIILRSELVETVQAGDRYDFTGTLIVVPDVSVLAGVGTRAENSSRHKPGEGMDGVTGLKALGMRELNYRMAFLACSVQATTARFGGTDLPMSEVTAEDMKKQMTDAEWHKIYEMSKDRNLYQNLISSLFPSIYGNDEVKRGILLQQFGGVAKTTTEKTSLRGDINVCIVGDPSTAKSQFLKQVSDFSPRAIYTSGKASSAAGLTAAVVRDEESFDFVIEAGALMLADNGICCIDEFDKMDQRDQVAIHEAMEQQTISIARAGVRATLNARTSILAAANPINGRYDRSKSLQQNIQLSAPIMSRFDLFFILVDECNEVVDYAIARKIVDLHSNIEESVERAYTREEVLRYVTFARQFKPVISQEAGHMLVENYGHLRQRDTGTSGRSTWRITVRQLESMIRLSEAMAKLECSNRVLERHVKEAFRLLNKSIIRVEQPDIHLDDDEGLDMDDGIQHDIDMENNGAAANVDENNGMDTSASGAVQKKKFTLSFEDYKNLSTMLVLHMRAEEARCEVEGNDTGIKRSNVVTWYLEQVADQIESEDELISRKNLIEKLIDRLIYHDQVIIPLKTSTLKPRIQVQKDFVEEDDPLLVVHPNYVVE
UniProt Q9XYU0: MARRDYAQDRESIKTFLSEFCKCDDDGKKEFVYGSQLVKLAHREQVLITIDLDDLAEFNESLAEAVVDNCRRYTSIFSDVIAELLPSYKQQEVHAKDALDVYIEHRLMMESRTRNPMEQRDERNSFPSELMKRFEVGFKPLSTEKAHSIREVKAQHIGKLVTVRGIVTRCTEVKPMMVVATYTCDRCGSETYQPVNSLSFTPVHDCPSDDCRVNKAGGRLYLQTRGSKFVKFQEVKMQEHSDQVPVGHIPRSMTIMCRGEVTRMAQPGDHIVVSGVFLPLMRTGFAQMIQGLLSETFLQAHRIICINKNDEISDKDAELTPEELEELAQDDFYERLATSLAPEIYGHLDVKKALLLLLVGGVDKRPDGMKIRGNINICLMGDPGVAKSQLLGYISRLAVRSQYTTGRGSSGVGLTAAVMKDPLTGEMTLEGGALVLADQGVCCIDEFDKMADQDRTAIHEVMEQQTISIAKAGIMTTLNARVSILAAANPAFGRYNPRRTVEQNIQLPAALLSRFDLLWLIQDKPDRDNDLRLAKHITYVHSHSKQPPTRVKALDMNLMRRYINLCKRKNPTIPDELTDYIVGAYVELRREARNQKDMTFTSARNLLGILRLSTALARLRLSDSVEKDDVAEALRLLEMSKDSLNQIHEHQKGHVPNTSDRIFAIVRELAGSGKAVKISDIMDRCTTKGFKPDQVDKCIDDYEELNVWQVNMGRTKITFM

Molecular target: Drosophila melanogaster Mcm2-7 hetero-hexamer, as part of purified recombinant DmCMG (Drosophila melanogaster) (UniProt P49735+Q9XYU1+Q26454+Q9VGW6+Q9V461+Q9XYU0)
Assay: co-purification (anti-FLAG affinity, then ion exchange), SDS-PAGE with Coomassie stain; 11 DmCMG subunits co-expressed in Hi five cells; lysate at 100 mM KCl bound to M2 agarose, eluted with DYKDDDDK peptide, passed through HiTrap SPFF, then two MonoQ KCl gradients (CMG eluted at ~400-450 mM KCl); FLAG-tagged subunit not stated

B1: Drosophila melanogaster Cdc45, as part of purified recombinant DmCMG (protein, UniProt O96989 1-575)
chain: MFVQDLRNDFYRQLVGKRILIVVNYDIDAICASRILQALFKYDHMLYTVVPIMGVTGLKRAYGEHQGDVKYVVLVNCGGCVDIVELLQPSDDVTFFICDSHRPLDVCNIYSDRQVCILGDASLEENIPAFETIFYDSEGEDEDEDESSDTEQQHDDSGAGESDQEDQAPRSRKLSRLERHEQRILKQRARRQWESERDRIMFEYTQFSYYGRSAALMVFELAWKLSKDNMDLLWWAIVGITEQLLLGKIESGAYTLELEQIQSHVSRLTNKTNDQNTMSASKITFENDLHLVLYRHWPVTESMRYSRYSSCQLKLWTLRGEKRLHELLLEMGLPLVHARQTYGAMDLVLRKEFFSMVERLAEKYDIADIVYGTFTLSYGYRSRYAAADYVYALLAIMESVKKHKTPEDCFLEASDALSRQHKQLLSAGIDQAKLLHAAVFRQVQSSLEARQVHSAGSFFYYVLQEEHAFFSYPYALGLLARFLLRGHVATSRARQASDLPLIASCPLNASEGMCLLVGIVPVREDSPRNFFGKAFEQAAQKSGVALLQDFFEPAVVQLRQSDLTRFLDSLTVLLA
With B1 the binding was “binds”.
